For test [1], the target named is T1, human RGMa (human) (UniProt Q96B86).
T1 sequence: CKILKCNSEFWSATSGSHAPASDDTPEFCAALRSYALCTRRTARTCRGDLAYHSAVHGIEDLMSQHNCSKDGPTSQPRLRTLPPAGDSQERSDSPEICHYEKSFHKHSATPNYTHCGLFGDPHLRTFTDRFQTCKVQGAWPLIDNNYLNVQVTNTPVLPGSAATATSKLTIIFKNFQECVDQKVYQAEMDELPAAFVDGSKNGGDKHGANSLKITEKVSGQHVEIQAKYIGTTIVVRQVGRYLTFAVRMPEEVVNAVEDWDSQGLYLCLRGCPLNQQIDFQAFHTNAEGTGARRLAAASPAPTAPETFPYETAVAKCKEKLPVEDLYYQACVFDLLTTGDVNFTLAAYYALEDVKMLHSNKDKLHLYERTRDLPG
As to the kind of experiment: human RGMa ELISA screen of IgGs.

Test [2] deals with T1, human RGMa (human). As to the kind of experiment: direct binding ELISA.
The target in test [3] is T1, human RGMa (human). As to the kind of experiment: RGMa-based ELISA screen of IgGs.
Test [4] concerns the target T1, human RGMa (human). As to the kind of experiment: hRGMa binding (ELISA).
For another test, the target named is T2, hRGMa-His (human) (UniProt Q96B86).
T2 sequence: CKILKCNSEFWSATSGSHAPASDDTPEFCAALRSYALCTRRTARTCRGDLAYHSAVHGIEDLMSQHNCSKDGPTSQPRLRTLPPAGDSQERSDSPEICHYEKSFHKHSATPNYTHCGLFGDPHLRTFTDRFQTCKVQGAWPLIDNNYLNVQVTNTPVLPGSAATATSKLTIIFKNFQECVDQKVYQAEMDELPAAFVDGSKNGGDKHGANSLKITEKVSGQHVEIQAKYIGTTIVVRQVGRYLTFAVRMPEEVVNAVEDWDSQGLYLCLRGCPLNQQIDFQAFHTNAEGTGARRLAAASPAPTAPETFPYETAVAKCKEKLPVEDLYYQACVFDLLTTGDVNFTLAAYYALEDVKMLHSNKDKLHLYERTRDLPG
As to the kind of experiment: BIAcore.

Our source for the binding values is patent US20160326240A1.

These are yes or no findings as the source states them, for the method shown. Some entries that bind do so weakly or less than the wild type. For some of these results: Tags and fused reporters may be left off the sequences shown.

B1: AE12-24 (antibody, V domains shown)
VH: EVQLQESGPGLVKPSETLSLTCNVSGGSISSYYWSWIRQPPGKGLEWIGNIYYSGSTNYNPSLKSRVTISVDTSKSQFSLKLSSVTAADTAVYYCARALDFWSGQYFDYWGQGTLVTVSS
VL: DIVMTQTPSSLSASVGDRVTITCQASQDISDYLNWYQQKPGKAPKLLIYDASTLESGVPSRFSGSGSGTDFTLTISGLQPEDFATYYCQQSYSIPPTFGPGTRLEIKR
As to B1, the binding result with human RGMa (human) [1] is on record as “binds”.

B2: AE12-4 (antibody, V domains shown)
VH: EVQLVESGGGVVQPGTSLRLSCAASGFPFSSYGMHWVRQAPGKGLEWVAAISGDGILKYYTDSVKGRFTISRDNSKNTLYLQMNNLSGEDTGLYYCARNYDNSLDYWGQGTLVTVSS
VL: QPVLTQSPSVSASLGASVKVTCTLSSGHSAYAIAWHQQQPEKGPRYLMKVNSDGSHNKGDGVPDRFSGSSSGAERYLIISGLQSEDEADYYCQTWGPGIRVFGGGTKLTVL
Consider B2, for which the binding result with human RGMa (human) [2], with human RGMa (human) [3] and with human RGMa (human) [4] was “binds” in each case.

B3: AE12-23 (antibody, V domains shown)
VH: EVQLQESGPGLVKPSETLSLTCTVSGGSISGYYWSWIRQSPGKGLEWIGEIFHTGRTYYNPSLRSRLTISVDTSKNQFSLKLSSLTAADTAVYYCARDSAFGSFDYWGQGTLVTVSS
VL: DIRVTQSPSSLSASVGDRVTITCQANEDISIYLNWYQQRPGKAPKLLIYDASNLETGVPSRFSGSGSGTDFTFTISSLQPEDFATYYCQQYHTYPFTFGGGTKVDIKR
B3: in the test with human RGMa (human) [1], the binding result is “binds”.

B4: AE12-8 (antibody, V domains shown)
VH: EVQLLESGGGLVKPGGSLRLSCAASGFTFDDYAMHWVRQAPGKGLEWVSLISWDGGSTYYADSVKGRFTISRDNSKNSLYLQMNSLRAEDTALYYCAKDIPKVGGYSYGYGALGYWGQGTPVTVSS
VL: SYELTQPPSVSVAPGQTARITCGGNNIGDISVHWYQQKSGQAPMLVVHDDSDRPSGIPERFSGSNSGSSATLTISRVEAGDEADYHCQVWDSGSGHHVFGTGTKVTVL
Take B4: the binding result with human RGMa (human) [2], with human RGMa (human) [3] and in the test with human RGMa (human) [4] was “binds” in each case.

B5: AE12-1 (antibody, V domains shown)
VH: EVQLVQSGAEVKKPGASVKVSCKASGYTFTSHGISWVRQAPGQGLDWMGWISPYSGNTNYAQKLQGRVTMTTDTSTSTAYMELSSLRSEDTAVYYCARVGSGPYYYMDVWGQGTLVTVSS
VL: QSALTQPRSVSGSPGQSVTISCTGTSSSVGDSIYVSWYQQHPGKAPKLMLYDVTKRPSGVPDRFSGSKSGNTASLTISGLQAEDEADYYCCSYAGTDTLFGGGTKVTVL
For B5, the binding result with human RGMa (human) [2], with hRGMa-His (human), with human RGMa (human) [3] and with human RGMa (human) [4] was “binds” in each case.

B6: AE12-1-Y (antibody, V domains shown)
VH: EVQLVQSGAEVKKPGASVKVSCKASGYTFTSHGISWVRQAPGQGLDWMGWISPYSGNTNYAQKLQGRVTMTTDTSTSTAYMELSSLRSEDTAVYYCARVGSGPYYYMDVWGQGTLVTVSS
VL: QSALTQPRSVSGSPGQSVTISCTGTSSSVGDSIYVSWYQQHPGKAPKLMLYDVTKRPSGVPDRFSGSKSGNTASLTISGLQAEDEADYYCYSYAGTDTLFGGGTKVTVL
As to B6, the binding result in the test with human RGMa (human) [4] is “binds”.

B7: AE12-1-K (antibody, V domains shown)
VH: EVQLVQSGAEVKKPGASVKVSCKASGYTFTSHGISWVRQAPGQGLDWMGWISPYSGNTNYAQKLQGRVTMTTDTSTSTAYMELSSLRSEDTAVYYCARVGSGPYYYMDVWGQGTLVTVSS
VL: QSALTQPRSVSGSPGQSVTISCTGTSSSVGDSIYVSWYQQHPGKAPKLMLYDVTKRPSGVPDRFSGSKSGNTASLTISGLQAEDEADYYCKSYAGTDTLFGGGTKVTVL
Regarding B7, the binding entry in the test with hRGMa-His (human) and with human RGMa (human) [4] was “binds” each time.

B8: AE12-1-I (antibody, V domains shown)
VH: EVQLVQSGAEVKKPGASVKVSCKASGYTFTSHGISWVRQAPGQGLDWMGWISPYSGNTNYAQKLQGRVTMTTDTSTSTAYMELSSLRSEDTAVYYCARVGSGPYYYMDVWGQGTLVTVSS
VL: QSALTQPRSVSGSPGQSVTISCTGTSSSVGDSIYVSWYQQHPGKAPKLMLYDVTKRPSGVPDRFSGSKSGNTASLTISGLQAEDEADYYCISYAGTDTLFGGGTKVTVL
With B8, the binding entry with hRGMa-His (human) and with human RGMa (human) [4] was “binds” each time.

B9: AE12-1-F (antibody, V domains shown)
VH: EVQLVQSGAEVKKPGASVKVSCKASGYTFTSHGISWVRQAPGQGLDWMGWISPYSGNTNYAQKLQGRVTMTTDTSTSTAYMELSSLRSEDTAVYYCARVGSGPYYYMDVWGQGTLVTVSS
VL: QSALTQPRSVSGSPGQSVTISCTGTSSSVGDSIYVSWYQQHPGKAPKLMLYDVTKRPSGVPDRFSGSKSGNTASLTISGLQAEDEADYYCFSYAGTDTLFGGGTKVTVL
Take B9: in the test with human RGMa (human) [4], the binding result is “binds”.

B10: AE12-1-H (antibody, V domains shown)
VH: EVQLVQSGAEVKKPGASVKVSCKASGYTFTSHGISWVRQAPGQGLDWMGWISPYSGNTNYAQKLQGRVTMTTDTSTSTAYMELSSLRSEDTAVYYCARVGSGPYYYMDVWGQGTLVTVSS
VL: QSALTQPRSVSGSPGQSVTISCTGTSSSVGDSIYVSWYQQHPGKAPKLMLYDVTKRPSGVPDRFSGSKSGNTASLTISGLQAEDEADYYCHSYAGTDTLFGGGTKVTVL
With B10, the binding entry with hRGMa-His (human) and with human RGMa (human) [4] was “binds” throughout.

B11: AE12-1-L (antibody, V domains shown)
VH: EVQLVQSGAEVKKPGASVKVSCKASGYTFTSHGISWVRQAPGQGLDWMGWISPYSGNTNYAQKLQGRVTMTTDTSTSTAYMELSSLRSEDTAVYYCARVGSGPYYYMDVWGQGTLVTVSS
VL: QSALTQPRSVSGSPGQSVTISCTGTSSSVGDSIYVSWYQQHPGKAPKLMLYDVTKRPSGVPDRFSGSKSGNTASLTISGLQAEDEADYYCLSYAGTDTLFGGGTKVTVL
Regarding B11, the binding entry with hRGMa-His (human) and with human RGMa (human) [4] was “binds” in each case.

B12: AE12-1-V (antibody, V domains shown)
VH: EVQLVQSGAEVKKPGASVKVSCKASGYTFTSHGISWVRQAPGQGLDWMGWISPYSGNTNYAQKLQGRVTMTTDTSTSTAYMELSSLRSEDTAVYYCARVGSGPYYYMDVWGQGTLVTVSS
VL: QSALTQPRSVSGSPGQSVTISCTGTSSSVGDSIYVSWYQQHPGKAPKLMLYDVTKRPSGVPDRFSGSKSGNTASLTISGLQAEDEADYYCVSYAGTDTLFGGGTKVTVL
Turning to B12, the binding entry with hRGMa-His (human) and with human RGMa (human) [4] was “binds” each time.

B13: AE12-21 (antibody, V domains shown)
VH: EVQLLESGGDLVRPGGSLRLTCEGSGFNFFTQTIHWVRQAPGKGLEWVASISSDSNYIYHADSLKGRFTVSRDNAQDSVFLQMNSLRVEDTAVYYCARDILLEPLAPHYYYGLDVWGQGTTVTVSS
VL: DIQVTQSPSSLSASVGDRVTITCRASQPISTYVNWYQQKPGKAPKLLIYDASTLEIGVPSRISGSGSGTDFTFTISSLQPEDIATYYCQQYDNFPLTFGGGTKVDIKR
Take B13: the binding entry in the test with human RGMa (human) [1] is “binds”.

B14: AE12-20 (antibody, V domains shown)
VH: EVQLVQSGSEVKKPGASVKLSCKTSGYTFTNSAIHWVRQAPGQRLEWMGWINAGNGNTKYSQKFQGRVTITRDTSASTAYMELSSLRSEDTAVYYCAWAYCGGDCYSLDYWGQGTLVTVSS
VL: DIQVTQSPSSLAASVGDRVTITCQASQDISNYLNWYQQRPGKAPKLLIYDASNLETGVPPRFSGDGSGTHFSFTITNVQPEDVGTYYCQQYDSLPLTFGQGTRLEIKR
On to B14, for which, in the test with human RGMa (human) [1], the binding entry is reported as “binds”.

B15: AE12-13 (antibody, V domains shown)
VH: EVQLQESGAGLLKPSETLSLTCAVYGGSFSGYYWSWIRQPPGKGLEWIGEINHSGSTNYNPSLKSRVTISVDTSKNQFSLKLSSVTAADTAVYYCARDDGAGVFDLWGRGTLVTVSS
VL: DIQLTQSPSSLSASVGDGVTITCQASQDISNYLNWYQQKPGKAPKLLIYDASNLETGVPSRFSGSGSGTFFTLTINNLQPEDFATYYCQQSGNTPWTFGQGTKVEINR
In the case of B15, in the test with human RGMa (human) [1], the binding result is reported as “binds”.

B16: AE12-3 (antibody, V domains shown)
VH: EVQLVESGGGLVQPGRSLRLSCAASGFTFDDYAMHWVRQAPGKGLEWVAVISYDGSNKYYADSVKGRFTISRDNSKNTLYLQMNSLRAEDTAVYYCARERVYSSGKEGYYYGMDVWGQGTMVTVSS
VL: QSGLTQPPSVSAAPGQRVTISCTGSGSNIGAGYGVHWYQQLPATAPKILIYGDYNRPSGVPDRFSGSRSGTSASLTITGLQAEDEADYYCQSYDNSLRGVLFGGGTKLTVL
Take B16: the binding result with human RGMa (human) [2], in the test with human RGMa (human) [3] and with human RGMa (human) [4] was “binds” each time.

B17: AE12-5 (antibody, V domains shown)
VH: EVQLVQSGAEVKKPGASVKVSCKVSGHSLSELTIHWVRQAPGKGLEWMGGFDPEDGRGTYAPNFRGRVTMTEDTSTDTAYMELSGLRSEDAAVYYCATLLGEYDSYFDLWGRGTLVTVSS
VL: DVVMTQSPDFQSVTPEDKVTITCRASQSIGSCLHWYQQKPDQSPKLLIKYASQSISGVPSRFSGSGSGTDFTLTINSLEAEDAATYYCHQSSSLPYTFGQGTKLEIK
In the case of B17, the binding result in the test with human RGMa (human) [2], with human RGMa (human) [3] and with human RGMa (human) [4] was “binds” throughout.

B18: AE12-15 (antibody, V domains shown)
VH: EVQLVQSGAEVKEPGASVKVSCKASGYTFTDYYIQWVRQAPGHGLEWMGWINPKTGGTNYLQKFQGRVTMTRDTSTRTAYMELSSLRSDDTAFYYCVREDMNTVLATSWFDPWGQGTLVTVSS
VL: SYELTQPPSVSVSPGQTARITCSGNQLGHKFASWYQQKPGQSPVVVIYEDKKRPSGIPERFSGSNSGNTATLTISGTQAMDEADYYCQVWDVITDHYVFGTGTKVTVLG
Regarding B18, the binding entry with human RGMa (human) [1] is listed as “binds”.
